The list shows only some results of the screen, not a fair sample: it is rich in T/C values a quarter to a half above the control, in often repeated tests (any T/C) and in doses without a T/C. Further doses and runs are listed elsewhere. T/C is the treated group as % of the vehicle group. Some entries give survivors of the animals treated and no T/C: the source holds a T/C of zero for them, seemingly a mark for toxic or unscored doses. Some doses without a T/C left all or most animals alive at the check, yet need not have been tolerated: survival well below the control is almost never listed, so the zero probably covers shortened survival too. Counts of survivors are from the toxicity check (mostly the fifth day) where no day follows; animals may have died later. Schedules are NCI's codes, read here as Q, the interval in days (D) or hours (H), X, the number of doses. Some entries were tested several times; the results are listed from low to high. Where survival is the endpoint, this PubChem deposit counts one and a half times the control or more as active, and values a quarter to a half above the control carry no call in these data; other NCI protocols may use other cut-offs. Some T/C values carry the count of animals alive at the toxicity check (mostly the fifth day); without a count, all were alive then.
Test system: CD2F1 mice, L1210 leukemia ip, survival T/C
Test: NCI In Vivo Anticancer Drug Screen. Data for tumor model L1210 Leukemia (intraperitoneal) in CD2F1 (CDF1) mice
Conditions: higher T/C = longer survival
Outline: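 Mice carrying a transplanted tumor received test compound or vehicle alone. The value is the measurement in the treated group divided by that in the vehicle-treated control group.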

[1] = T/C endpoint: mean survival time, dose: 100.0 mg/kg/injection, schedule: Q04DX003 (ip), vehicle: saline with Tween-80
[2] = T/C endpoint: mean survival time, dose: 200.0 mg/kg/injection, schedule: Q04DX003 (ip), vehicle: saline with Tween-80
[3] = T/C endpoint: mean survival time, dose: 400.0 mg/kg/injection, schedule: Q04DX003 (ip), vehicle: saline with Tween-80
[4] = T/C endpoint: mean survival time, dose: 200.0 mg/kg/injection, schedule: Q01DX009 (ip), vehicle: saline
[5] = T/C endpoint: mean survival time, dose: 100.0 mg/kg/injection, schedule: Q01DX001 (ip), vehicle: saline with Tween-80
[6] = T/C endpoint: mean survival time, dose: 400.0 mg/kg/injection, schedule: Q04DX003 (ip), vehicle: saline
[7] = T/C endpoint: mean survival time, dose: 200.0 mg/kg/injection, schedule: Q01DX009 (ip), vehicle: saline with Tween-80
[8] = T/C endpoint: mean survival time, dose: 300.0 mg/kg/injection, schedule: Q01DX001 (ip), vehicle: saline
[9] = T/C endpoint: mean survival time, dose: 400.0 mg/kg/injection, schedule: Q01DX009 (ip), vehicle: saline
[10] = T/C endpoint: mean survival time, dose: 50.0 mg/kg/injection, schedule: Q01DX009 (ip), vehicle: saline with Tween-80
[11] = T/C endpoint: mean survival time, dose: 100.0 mg/kg/injection, schedule: Q04DX002 (ip), vehicle: saline with Tween-80
[12] = T/C endpoint: mean survival time, dose: 200.0 mg/kg/injection, schedule: Q04DX002 (ip), vehicle: saline with Tween-80
[13] = T/C endpoint: mean survival time, dose: 400.0 mg/kg/injection, schedule: Q04DX002 (ip), vehicle: saline with Tween-80

Cc1cn2ccccc2c[n+]1=O
survivor count [1]: 0 of 6 | survivor count [2]: 0 of 6 | survivor count [3]: 0 of 6

O=Nc1ccc(O)cc1
survivor count [3]: 0 of 6

CCN(CC)CCSC(=O)c1ccccc1
survivor count [4]: 0 of 3

COC(=O)/C(=C\c1ccccc1)CN1CCCCC1
survivor count [5]: 0 of 3 | survivor count (T/C endpoint: mean survival time, dose: 200.0 mg/kg/injection, schedule: Q01DX001 (ip), vehicle: saline with Tween-80): 0 of 3 | survivor count (T/C endpoint: mean survival time, dose: 400.0 mg/kg/injection, schedule: Q01DX001 (ip), vehicle: saline with Tween-80): 0 of 3

NC(=S)N/N=C/c1ccc(OC(F)(F)F)cn1
survivor count (T/C endpoint: mean survival time, dose: 200.0 mg/kg/injection, schedule: Q04DX002 (ip), vehicle: other): 2 of 3

CCOC(=O)NCCBr
survivor count (T/C endpoint: mean survival time, dose: 300.0 mg/kg/injection, schedule: Q01DX007 (ip), vehicle: saline): 0 of 4 | survivor count (T/C endpoint: mean survival time, dose: 600.0 mg/kg/injection, schedule: Q01DX007 (ip), vehicle: saline): 0 of 4

CCS(=O)(=O)/C=C\S(=O)(=O)CC
survivor count (T/C endpoint: mean survival time, dose: 12.5 mg/kg/injection, schedule: Q04DX003 (ip), vehicle: Klucel (hydroxypropylcellulose) (HPC)): 0 of 6 | survivor count (T/C endpoint: mean survival time, dose: 25.0 mg/kg/injection, schedule: Q04DX003 (ip), vehicle: Klucel (hydroxypropylcellulose) (HPC)): 0 of 6 | survivor count (T/C endpoint: mean survival time, dose: 50.0 mg/kg/injection, schedule: Q04DX003 (ip), vehicle: Klucel (hydroxypropylcellulose) (HPC)): 0 of 6

N#CCSc1ncnc2nc[nH]c12
T/C (T/C endpoint: mean survival time, dose: 60.0 mg/kg/injection, schedule: Q01DX009 (ip), vehicle: saline): 126 % of control | survivor count (T/C endpoint: mean survival time, dose: 120.0 mg/kg/injection, schedule: Q01DX009 (ip), vehicle: saline): 3 of 6 | survivor count (T/C endpoint: median survival time, dose: 120.0 mg/kg/injection, schedule: Q01DX009 (ip), vehicle: saline): 3 of 6 | survivor count (T/C endpoint: median survival time, dose: 240.0 mg/kg/injection, schedule: Q01DX009 (ip), vehicle: saline): 0 of 6

COc1ccc(C(=O)C/C(=N\N(C(=O)c2ccc(OC)cc2)c2ccccc2)c2ccc(OC)cc2)cc1
survivor count [3]: 6 of 6

Nc1c[n+]([O-])cc2ccccc12
survivor count [3]: 0 of 6

COc1cc2cc[n+]3c(C)c4cc5c(cc4cc3c2cc1OC)OCO5 (tested in a mixture with another compound)
T/C (T/C endpoint: mean survival time, dose: 11.0 mg/kg/injection, schedule: Q01DX009 (ip), vehicle: saline with Tween-80): 129 % of control | T/C (T/C endpoint: mean survival time, dose: 11.0 mg/kg/injection, schedule: Q01DX009 (ip), vehicle: saline): 137 % of control | T/C (T/C endpoint: mean survival time, dose: 12.5 mg/kg/injection, schedule: Q01DX009 (ip), vehicle: saline): 133 % of control | T/C (T/C endpoint: mean survival time, dose: 16.5 mg/kg/injection, schedule: Q01DX009 (ip), vehicle: saline with Tween-80): 134 % of control | T/C (T/C endpoint: mean survival time, dose: 16.5 mg/kg/injection, schedule: Q01DX009 (ip), vehicle: saline): 132 % of control | T/C (T/C endpoint: mean survival time, dose: 25.0 mg/kg/injection, schedule: Q01DX009 (ip), vehicle: saline): 130 and 144 % of control | survivor count [6]: 2 of 6

COc1ccc(C(=O)/C=N/O)cc1
survivor count [2]: 2 of 6 | survivor count [3]: 0 of 6

O=C(O)C1C2CC3C(C2)C31 (stereo not given)
survivor count (T/C endpoint: mean survival time, dose: 400.0 mg/kg/injection, schedule: Q01DX009 (ip), vehicle: other): 2 of 6

N=C(N)N
survivor count [3]: 0 of 6

CC1C(c2ccccc2)OC(N2CCOCC2)C(C)(C)CN1C (stereo not given)
survivor count (T/C endpoint: median survival time, dose: 800.0 mg/kg/injection, schedule: Q01DX009 (ip), vehicle: saline with Tween-80): 0 of 6

CCc1c(C)c(C)cc(S(=O)(=O)O)c1C
survivor count [3]: 0 of 6

CCNc1nc(NCC)nc(SC)n1
survivor count [7]: 3 of 6 | survivor count [3]: 0 of 6

CCC(N)Cc1ccc2c(c1)OCO2 (stereo not given)
survivor count [2]: 0 of 6 | survivor count [3]: 0 of 6

Cc1ccc(C2=C(O)C(=O)C(c3ccc(C)cc3)C2=O)cc1 (stereo not given)
survivor count [3]: 0 of 3

CC(Cc1ccccc1)NC(C)Cc1ccccc1 (stereo not given)
survivor count [3]: 0 of 3

N=c1ccccn1CCO
survivor count [8]: 0 of 6

O=CNc1cccc2ccc3c4ccccc4ccc3c12
survivor count [2]: 6 of 6

NC(Cc1cccc(NP(=S)(N2CC2)N2CC2)c1)C(=O)O (stereo not given)
T/C (T/C endpoint: mean survival time, dose: 200.0 mg/kg/injection, schedule: Q04DX003 (ip), vehicle: saline): 129 % of control [5 of 6 alive] | survivor count [9]: 6 of 6 | T/C [6]: 142 % of control

CN1CCCC(OC(=O)C(c2ccccc2)C2(O)CCCCC2)C1 (stereo not given)
survivor count (T/C endpoint: mean survival time, dose: 150.0 mg/kg/injection, schedule: Q01DX001 (ip), vehicle: saline): 2 of 6 | survivor count [8]: 0 of 6

C[N+](C)(C)/N=C\c1cccc2ccccc12
survivor count [10]: 0 of 3 | survivor count (T/C endpoint: mean survival time, dose: 100.0 mg/kg/injection, schedule: Q01DX009 (ip), vehicle: saline with Tween-80): 0 of 3 | survivor count [7]: 0 of 3

NNC1CC2CCC1C2 (stereo not given)
survivor count (T/C endpoint: mean survival time, dose: 50.0 mg/kg/injection, schedule: Q01DX009 (ip), vehicle: saline): 1 of 6 | survivor count (T/C endpoint: mean survival time, dose: 100.0 mg/kg/injection, schedule: Q01DX009 (ip), vehicle: saline): 0 of 6 | survivor count [4]: 0 of 6 | survivor count [9]: 0 of 6

CCOC(=O)c1ccc(NC(=O)Nc2ccc(Cl)cc2Cl)cc1
survivor count (T/C endpoint: mean survival time, dose: 50.0 mg/kg/injection, schedule: Q01DX001 (ip), vehicle: saline with Tween-80): 6 of 6 | survivor count [10]: 3 of 3 | survivor count [5]: 6 of 6 | T/C [11]: 88 and 89 % of control | survivor count [11]: 3 of 3 and 6 of 6 | survivor count [1]: 6 of 6 | survivor count [12]: 6 of 6 | survivor count [13]: 2 of 3

CCOC(=O)C1C2CCC(O2)C1C#N (stereo not given)
survivor count [11]: 1 of 3 | survivor count [12]: 1 of 3 | survivor count [13]: 0 of 3

CCC(C(C)N1CC(=O)NC(=O)C1)N1CC(=O)NC(=O)C1 (stereo not given)
T/C (T/C endpoint: mean survival time, dose: 0.25 mg/kg/injection, schedule: Q01DX009 (ip), vehicle: Klucel (hydroxypropylcellulose) (HPC)): 142 % of control | T/C (T/C endpoint: mean survival time, dose: 0.5 mg/kg/injection, schedule: Q01DX009 (ip), vehicle: Klucel (hydroxypropylcellulose) (HPC)): 139 % of control | survivor count (T/C endpoint: mean survival time, dose: 4.0 mg/kg/injection, schedule: Q01DX009 (ip), vehicle: Klucel (hydroxypropylcellulose) (HPC)): 10 of 10 | survivor count (T/C endpoint: mean survival time, dose: 8.0 mg/kg/injection, schedule: Q01DX009 (ip), vehicle: Klucel (hydroxypropylcellulose) (HPC)): 7 of 10 | survivor count (T/C endpoint: mean survival time, dose: 16.0 mg/kg/injection, schedule: Q04DX003 (ip), vehicle: Klucel (hydroxypropylcellulose) (HPC)): 8 of 10 | survivor count (T/C endpoint: mean survival time, dose: 32.0 mg/kg/injection, schedule: Q04DX003 (ip), vehicle: Klucel (hydroxypropylcellulose) (HPC)): 1 of 10 | survivor count (T/C endpoint: mean survival time, dose: 64.0 mg/kg/injection, schedule: Q04DX003 (ip), vehicle: Klucel (hydroxypropylcellulose) (HPC)): 4 of 10

C=CN1CCCC1=O
survivor count (T/C endpoint: median survival time, dose: 7.5 grams/kg/injection, schedule: Q03HX016 (ip), vehicle: saline): 4 of 10 | survivor count (T/C endpoint: median survival time, dose: 7.5 grams/kg/injection, schedule: Q03HX024 (ip), vehicle: saline): 5 of 10

CN(C)Cc1cccc(CN(C)C)c1O
survivor count (T/C endpoint: mean survival time, dose: 200.0 mg/kg/injection, schedule: Q01DX001 (ip), vehicle: saline): 2 of 6 | survivor count (T/C endpoint: mean survival time, dose: 400.0 mg/kg/injection, schedule: Q01DX001 (ip), vehicle: saline): 0 of 6

From PubChem BioAssay AID256 (DTP/NCI, 2004)
